Measured values reported in paper PMC5803207.
Results are given in words; binding and its absence hold for the method and conditions named. Binding seen in cells or lysates may run through a third protein. Some binding calls cover weakened binding; strength is not graded here.

Biological target: endogenous glutamate dehydrogenase 1 (GLUD1) (human (endogenous in HCT116 and LoVo)), P00367
Experiment: co-IP; endogenous proteins in HCT116 and LoVo lysates; anti-GLUD1 antibody or normal immunoglobulin G coupled to Amino Link Plus resin (Pierce Co-IP Kit); overnight at 4 °C
Conditions: remark: other sources report otherwise

B1: endogenous Sirtuin5 (SIRT5), Q9NXA8 37-310 (enzyme)
chain: SSSMADFRKFFAKAKHIVIISGAGVSAESGVPTFRGAGGYWRKWQAQDLATPLAFAHNPSRVWEFYHYRREVMGSKEPNAGHRAIAECETRLGKQGRRVVVITQNIDELHRKAGTKNLLEIHGSLFKTRCTSCGVVAENYKSPICPALSGKGAPEPGTQDASIPVEKLPRCEEAGCGGLLRPHVVWFGENLDPAILEEVDRELAHCDLCLVVGTSSVVYPAAMFAPQVAARGVPVAEFNTETTPATNRFRFHFQGPCGTTLPEALACHENETVS
binding: binds
